Reference: patent publication US20150044346A1, “USE OF OXAZOLINES AS AROMA/FLAVOUR PRECURSORS” (NESTEC S.A., priority 2012, published 2015)

Assay: In-mouth release from spiked chocolate during chewing, PTR-MS of nose space
Details: spiked chocolate 2 g, test person; FIG. 5

## CCC(C)C=O (centres unmarked) [2-methylbutanal]
  ion m/z 87 in nose space during chewing of spiked chocolate (PTR-MS): clear increase

## CC(C)CC=O [3-methylbutanal]
  ion m/z 87 in nose space during chewing of spiked chocolate (PTR-MS): clear increase
